From paper PMC7542355 come the findings set out here.

Sequences of proteins named here, by UniProt entry; tags and fusion partners are left off.
UniProt P62344: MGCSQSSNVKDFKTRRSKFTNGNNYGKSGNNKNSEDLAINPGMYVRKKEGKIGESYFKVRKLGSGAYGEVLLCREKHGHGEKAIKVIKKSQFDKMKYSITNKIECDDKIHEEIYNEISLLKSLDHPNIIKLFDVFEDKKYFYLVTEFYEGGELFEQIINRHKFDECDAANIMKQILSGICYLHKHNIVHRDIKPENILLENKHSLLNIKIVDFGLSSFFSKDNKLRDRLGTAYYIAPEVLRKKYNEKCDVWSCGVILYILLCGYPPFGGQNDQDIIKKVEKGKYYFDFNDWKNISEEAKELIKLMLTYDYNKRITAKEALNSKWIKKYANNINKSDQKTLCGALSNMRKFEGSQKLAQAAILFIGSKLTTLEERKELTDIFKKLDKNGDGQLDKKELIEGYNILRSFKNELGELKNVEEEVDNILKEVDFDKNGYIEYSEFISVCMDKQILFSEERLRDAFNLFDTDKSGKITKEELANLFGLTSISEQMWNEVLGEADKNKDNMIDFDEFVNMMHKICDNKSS

Assay [1] deals with T1, Rhoptry protein RhopH3 (Plasmodium falciparum (endogenous in 3D7 parasites)) (UniProt Q8I395).
T1 sequence: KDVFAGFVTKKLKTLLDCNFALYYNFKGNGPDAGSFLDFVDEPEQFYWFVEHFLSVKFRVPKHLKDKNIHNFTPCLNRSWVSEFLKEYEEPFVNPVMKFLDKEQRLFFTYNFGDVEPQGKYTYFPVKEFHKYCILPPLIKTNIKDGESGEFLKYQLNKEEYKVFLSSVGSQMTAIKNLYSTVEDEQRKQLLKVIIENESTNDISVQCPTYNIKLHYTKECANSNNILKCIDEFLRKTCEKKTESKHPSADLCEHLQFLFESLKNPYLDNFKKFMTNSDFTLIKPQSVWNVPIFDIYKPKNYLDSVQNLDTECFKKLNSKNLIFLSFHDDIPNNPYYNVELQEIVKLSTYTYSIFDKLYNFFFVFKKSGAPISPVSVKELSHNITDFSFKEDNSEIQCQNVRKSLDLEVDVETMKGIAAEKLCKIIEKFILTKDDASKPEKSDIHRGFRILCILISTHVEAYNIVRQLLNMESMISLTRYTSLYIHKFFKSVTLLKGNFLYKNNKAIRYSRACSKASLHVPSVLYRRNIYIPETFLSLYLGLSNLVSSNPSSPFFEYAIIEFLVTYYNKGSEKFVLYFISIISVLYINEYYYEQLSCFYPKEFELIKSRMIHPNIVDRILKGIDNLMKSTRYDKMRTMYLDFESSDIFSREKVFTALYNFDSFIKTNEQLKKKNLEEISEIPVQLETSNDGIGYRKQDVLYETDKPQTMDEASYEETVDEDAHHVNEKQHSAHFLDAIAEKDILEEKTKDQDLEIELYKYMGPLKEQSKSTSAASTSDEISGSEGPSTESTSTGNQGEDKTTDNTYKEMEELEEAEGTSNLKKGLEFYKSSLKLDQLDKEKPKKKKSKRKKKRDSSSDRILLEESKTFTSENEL
Description: co-IP; reverse IP: RhopH3 immunoprecipitated with RhopH3 antisera from PfCDPK1-3HA-DD parasite lysate; Western blot with anti-HA; 3D7 parasites as negative control. A general note: A western blot detects proteins with antibodies after separation by electrophoresis.

Assay [2] addresses P. falciparum CDPK1 (PfCDPK1) (Plasmodium falciparum (endogenous in 3D7 parasites)) (UniProt P62344). Description: co-IP; PfCDPK1 immunoprecipitated from 3D7 parasite lysate with anti-PfCDPK1 antisera and protein A/G agarose beads, 4°C, lysis buffer with 1% Triton X-100 and 100 mM NaCl; Western blot for RhopH3 or AMA1.

These are yes or no findings as the source states them, for the method shown. Binding seen in cells or lysates may run through a third protein. Some entries that bind do so weakly or less than the wild type.

“PfCDPK1-3HA-DD (from UniProt P62344 1-524) (enzyme)”: the binding result in assay [1] is “binds”.

B1: Rhoptry protein RhopH3 (protein, UniProt Q8I395 25-897)
chain: KDVFAGFVTKKLKTLLDCNFALYYNFKGNGPDAGSFLDFVDEPEQFYWFVEHFLSVKFRVPKHLKDKNIHNFTPCLNRSWVSEFLKEYEEPFVNPVMKFLDKEQRLFFTYNFGDVEPQGKYTYFPVKEFHKYCILPPLIKTNIKDGESGEFLKYQLNKEEYKVFLSSVGSQMTAIKNLYSTVEDEQRKQLLKVIIENESTNDISVQCPTYNIKLHYTKECANSNNILKCIDEFLRKTCEKKTESKHPSADLCEHLQFLFESLKNPYLDNFKKFMTNSDFTLIKPQSVWNVPIFDIYKPKNYLDSVQNLDTECFKKLNSKNLIFLSFHDDIPNNPYYNVELQEIVKLSTYTYSIFDKLYNFFFVFKKSGAPISPVSVKELSHNITDFSFKEDNSEIQCQNVRKSLDLEVDVETMKGIAAEKLCKIIEKFILTKDDASKPEKSDIHRGFRILCILISTHVEAYNIVRQLLNMESMISLTRYTSLYIHKFFKSVTLLKGNFLYKNNKAIRYSRACSKASLHVPSVLYRRNIYIPETFLSLYLGLSNLVSSNPSSPFFEYAIIEFLVTYYNKGSEKFVLYFISIISVLYINEYYYEQLSCFYPKEFELIKSRMIHPNIVDRILKGIDNLMKSTRYDKMRTMYLDFESSDIFSREKVFTALYNFDSFIKTNEQLKKKNLEEISEIPVQLETSNDGIGYRKQDVLYETDKPQTMDEASYEETVDEDAHHVNEKQHSAHFLDAIAEKDILEEKTKDQDLEIELYKYMGPLKEQSKSTSAASTSDEISGSEGPSTESTSTGNQGEDKTTDNTYKEMEELEEAEGTSNLKKGLEFYKSSLKLDQLDKEKPKKKKSKRKKKRDSSSDRILLEESKTFTSENEL
Regarding B1, the binding entry in assay [2] is on record as “binds”.
